Assay results published in patent publication EP4790144A1.
These are yes or no findings as the source states them, for the method shown. Some binding calls cover weakened binding; strength is not graded here.

Sequences of proteins named here, by UniProt entry; tags and fusion partners are left off. A change or cut given only in a name is not applied to a line headed by its entry.
UniProt P33897: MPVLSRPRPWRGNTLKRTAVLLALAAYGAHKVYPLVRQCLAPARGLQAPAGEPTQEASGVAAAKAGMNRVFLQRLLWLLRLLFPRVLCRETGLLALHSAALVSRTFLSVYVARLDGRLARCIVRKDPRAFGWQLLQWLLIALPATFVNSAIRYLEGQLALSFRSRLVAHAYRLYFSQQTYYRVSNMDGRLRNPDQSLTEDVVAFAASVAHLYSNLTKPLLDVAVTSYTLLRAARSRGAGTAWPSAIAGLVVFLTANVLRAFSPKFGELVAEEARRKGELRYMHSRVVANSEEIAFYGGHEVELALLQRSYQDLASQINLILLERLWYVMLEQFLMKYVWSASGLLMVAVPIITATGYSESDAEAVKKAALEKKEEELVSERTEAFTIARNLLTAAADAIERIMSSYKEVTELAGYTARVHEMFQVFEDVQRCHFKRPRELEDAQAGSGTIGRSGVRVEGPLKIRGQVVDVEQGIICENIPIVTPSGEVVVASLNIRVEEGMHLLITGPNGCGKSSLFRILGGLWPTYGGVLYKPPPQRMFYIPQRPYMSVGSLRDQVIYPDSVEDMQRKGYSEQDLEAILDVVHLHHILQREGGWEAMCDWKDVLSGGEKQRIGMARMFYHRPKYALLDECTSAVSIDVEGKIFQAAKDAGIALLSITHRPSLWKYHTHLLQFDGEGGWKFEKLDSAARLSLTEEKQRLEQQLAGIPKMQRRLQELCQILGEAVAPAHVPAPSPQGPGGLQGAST

Biological target: 2023-601 project-ABCD1 protein (human) (UniProt P33897)
Assay: ELISA, ABCD1 protein coated at 2 ug/mL, HRP goat anti-mouse secondary antibody

binding: binds
B1: 07PC44 (antibody, V domains shown)
VH: QVQLQQSGPELVKPGASVKMSCKASGYTFTDYVISWVKQRTGQGLEWIGEIYPGSGSTYYNEKFKGKATLTADKSSNTAYMQLSSLTSEDSAVYFCARSYDYDGLAWFAYWGQGTLVTVSA
VL: DIVMTQAAPSVPVTPGESVSISCRSSKSLLHSNGNTYLYWFLQRPGQSPQLLIYRMSNLASGVPDRFSGSGSGTAFTLRISRVEAEDVGVYYCMQHLEYPLTFGSGTKLEIK
